Results published in publication PMC12983349.

Amino acid sequences for entries named in this document (tags omitted).
UniProt Q91WJ8: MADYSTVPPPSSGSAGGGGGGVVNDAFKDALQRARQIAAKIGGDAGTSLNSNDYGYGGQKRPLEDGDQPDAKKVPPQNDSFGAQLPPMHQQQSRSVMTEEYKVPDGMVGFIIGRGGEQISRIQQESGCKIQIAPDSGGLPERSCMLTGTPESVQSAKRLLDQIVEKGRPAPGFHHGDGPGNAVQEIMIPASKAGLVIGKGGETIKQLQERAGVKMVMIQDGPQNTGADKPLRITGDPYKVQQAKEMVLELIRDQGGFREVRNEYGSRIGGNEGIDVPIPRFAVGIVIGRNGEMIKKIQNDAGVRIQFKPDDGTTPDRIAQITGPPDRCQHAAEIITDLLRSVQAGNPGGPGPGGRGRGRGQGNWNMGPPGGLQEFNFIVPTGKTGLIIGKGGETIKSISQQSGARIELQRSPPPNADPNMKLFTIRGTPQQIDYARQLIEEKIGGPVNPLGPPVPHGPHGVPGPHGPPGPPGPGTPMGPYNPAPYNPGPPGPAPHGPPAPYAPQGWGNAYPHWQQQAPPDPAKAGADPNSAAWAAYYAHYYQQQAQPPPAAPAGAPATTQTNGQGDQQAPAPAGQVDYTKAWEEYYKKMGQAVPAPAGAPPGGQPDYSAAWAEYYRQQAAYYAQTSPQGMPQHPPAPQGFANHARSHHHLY
UniProt Q99020: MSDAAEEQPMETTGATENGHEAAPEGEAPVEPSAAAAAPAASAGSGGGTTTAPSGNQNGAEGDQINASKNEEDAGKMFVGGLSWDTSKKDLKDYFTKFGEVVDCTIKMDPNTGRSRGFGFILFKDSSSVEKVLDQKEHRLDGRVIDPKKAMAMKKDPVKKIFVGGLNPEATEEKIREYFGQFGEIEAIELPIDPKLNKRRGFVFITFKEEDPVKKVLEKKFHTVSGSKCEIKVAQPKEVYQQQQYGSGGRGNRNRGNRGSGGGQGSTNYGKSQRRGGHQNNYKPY
UniProt Q91VH2: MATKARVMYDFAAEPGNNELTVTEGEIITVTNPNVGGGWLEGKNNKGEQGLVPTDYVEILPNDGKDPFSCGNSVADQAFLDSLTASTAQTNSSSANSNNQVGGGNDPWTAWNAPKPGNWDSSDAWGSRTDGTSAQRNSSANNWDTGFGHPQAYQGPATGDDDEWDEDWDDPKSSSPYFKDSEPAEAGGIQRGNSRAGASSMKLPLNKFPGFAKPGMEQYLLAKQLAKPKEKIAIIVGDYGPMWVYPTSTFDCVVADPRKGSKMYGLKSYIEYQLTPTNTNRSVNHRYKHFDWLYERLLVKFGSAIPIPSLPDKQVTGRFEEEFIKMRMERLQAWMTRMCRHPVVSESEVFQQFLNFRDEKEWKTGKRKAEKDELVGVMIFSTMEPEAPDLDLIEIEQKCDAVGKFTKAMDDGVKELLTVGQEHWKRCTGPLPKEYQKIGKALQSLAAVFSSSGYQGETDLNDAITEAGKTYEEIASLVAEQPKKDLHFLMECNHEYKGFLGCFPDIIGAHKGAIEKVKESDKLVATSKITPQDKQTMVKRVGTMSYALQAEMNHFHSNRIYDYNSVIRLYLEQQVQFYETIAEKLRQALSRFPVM
UniProt Q64430: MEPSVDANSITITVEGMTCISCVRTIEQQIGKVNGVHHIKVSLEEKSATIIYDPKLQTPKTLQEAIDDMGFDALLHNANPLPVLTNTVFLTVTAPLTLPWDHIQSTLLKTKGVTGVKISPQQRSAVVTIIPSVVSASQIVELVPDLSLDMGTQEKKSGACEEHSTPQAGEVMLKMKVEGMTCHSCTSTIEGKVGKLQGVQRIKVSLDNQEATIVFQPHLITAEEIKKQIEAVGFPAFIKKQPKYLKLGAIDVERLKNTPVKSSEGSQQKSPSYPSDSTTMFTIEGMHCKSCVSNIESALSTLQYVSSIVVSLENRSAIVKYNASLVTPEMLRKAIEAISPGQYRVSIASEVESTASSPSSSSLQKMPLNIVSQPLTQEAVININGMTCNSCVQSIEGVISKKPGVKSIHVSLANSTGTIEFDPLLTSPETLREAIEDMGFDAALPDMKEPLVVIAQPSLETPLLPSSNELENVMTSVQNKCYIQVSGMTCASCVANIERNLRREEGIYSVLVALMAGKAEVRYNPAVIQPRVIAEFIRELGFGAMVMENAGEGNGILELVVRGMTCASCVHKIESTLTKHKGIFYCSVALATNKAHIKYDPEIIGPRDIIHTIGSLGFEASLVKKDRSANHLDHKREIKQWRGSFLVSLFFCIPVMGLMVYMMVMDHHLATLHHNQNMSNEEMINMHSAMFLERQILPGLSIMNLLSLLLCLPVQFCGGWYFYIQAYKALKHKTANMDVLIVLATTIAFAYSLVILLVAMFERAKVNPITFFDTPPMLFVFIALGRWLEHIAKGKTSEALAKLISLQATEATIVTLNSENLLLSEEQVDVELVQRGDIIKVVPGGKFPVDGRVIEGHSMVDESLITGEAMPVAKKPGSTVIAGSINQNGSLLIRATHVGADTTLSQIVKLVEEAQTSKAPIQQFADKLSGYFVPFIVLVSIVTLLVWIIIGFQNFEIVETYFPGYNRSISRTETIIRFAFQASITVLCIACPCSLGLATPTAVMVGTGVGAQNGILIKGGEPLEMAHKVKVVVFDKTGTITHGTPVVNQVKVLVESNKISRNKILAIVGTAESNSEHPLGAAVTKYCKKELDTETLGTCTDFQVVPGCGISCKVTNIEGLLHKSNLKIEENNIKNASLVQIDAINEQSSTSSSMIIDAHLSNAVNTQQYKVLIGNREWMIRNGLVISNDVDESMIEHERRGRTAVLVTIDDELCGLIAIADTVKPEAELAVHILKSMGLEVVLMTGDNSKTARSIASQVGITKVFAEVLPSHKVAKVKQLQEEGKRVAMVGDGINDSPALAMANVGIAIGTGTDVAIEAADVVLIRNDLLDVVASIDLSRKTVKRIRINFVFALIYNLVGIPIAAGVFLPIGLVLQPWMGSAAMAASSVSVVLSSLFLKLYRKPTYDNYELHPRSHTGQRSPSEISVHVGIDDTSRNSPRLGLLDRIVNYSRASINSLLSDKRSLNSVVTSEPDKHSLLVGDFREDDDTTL

B1: cysteine rich intestinal protein 2 (CRIP2) (protein, UniProt Q9DCT8 1-208)
chain: MASKCPKCDKTVYFAEKVSSLGKDWHKFCLKCERCNKTLTPGGHAEHDGKPFCHKPCYATLFGPKGVNIGGAGSYIYEKPQTEAPQVTGPIEVPVVRTEERKTSGPPKGPSKASSVTTFTGEPNMCPRCNKRVYFAEKVTSLGKDWHRPCLRCERCSKTLTPGGHAEHDGQPYCHKPCYGILFGPKGVNTGAVGSYIYDKDPEGTVQP
B2: SCAMP3 (protein, UniProt O35609 1-349)
chain: MAQSRDTGNPFPDSGELDNPFQDPAVIQHRPSQQYATLDVYNPFENREPPPAYEPPAPAPAPLPPPSAPSVQSSRKLSPTEPRNYGSYSTQASAAAATAELLKKQEELNRKAEELDRRERELQHVALGGAGTRQNNWPPLPSFCPVKPCFFQDISMEIPQEFQKTVSTMYYLWMCSTLALLLNFFACLARFCVDTGSGSGFGLSMLWLLLFTPCSFVCWYRPMYKAFRSDSSFNFFVFFFIFFVQDVFFVLQAIGIPGWGFSGWVTALVVVGSKPAVAVLMLLVALLFTGIAVLGIVMLKRIHSLYRQTGASFQKAQQEFAAGVFSNPAVRTAAANAAAGAAENAFRAP
B3: SYNCRIP/HNRNPQ (protein, UniProt Q7TMK9 1-623)
chain: MATEHVNGNGTEEPMDTTSAVIHSENFQTLLDAGLPQKVAEKLDEIYVAGLVAHSDLDERAIEALKEFNEDGALAVLQQFKDSDLSHVQNKSAFLCGVMKTYRQREKQGTKVADSSKGPDEAKIKALLERTGYTLDVTTGQRKYGGPPPDSVYSGQQPSVGTEIFVGKIPRDLFEDELVPLFEKAGPIWDLRLMMDPLTGLNRGYAFVTFCTKEAAQEAVKLYNNHEIRSGKHIGVCISVANNRLFVGSIPKSKTKEQILEEFSKVTEGLTDVILYHQPDDKKKNRGFCFLEYEDHKTAAQARRRLMSGKVKVWGNVGTVEWADPIEDPDPEVMAKVKVLFVRNLANTVTEEILEKSFSQFGKLERVKKLKDYAFIHFDERDGAVKAMEEMNGKDLEGENIEIVFAKPPDQKRKERKAQRQAAKNQMYDDYYYYGPPHMPPPTRGRGRGGRGGYGYPPDYYGYEDYYDYYGYDYHNYRGGYEDPYYGYEDFQVGARGRGGRGARGAAPSRGRGAAPPRGRAGYSQRGGPGSARGVRGARGGAQQQRGRGVRGARGGRGGNVGGKRKADGYNQPDTKRRQTNNQNWGSQPIAQQPLQGGDHSGNYGYKSENQEFYQDTFGQQWK
B4: ERBB receptor feedback inhibitor 1 (ERRFI1) (protein, UniProt Q99JZ7 1-461)
chain: MSTAGVAAQDIRVPLKTGFLHNGQALGNMKSCWGSHSEFENNFLNIDPITMAYNLNSPAQEHLTTVGCAARSAPGSGHFFAECGPSPRSSLPPLVISPSESSGQREEDQVMCGFKKLSVNGVCTSTPPLTPIKSCPSPFPCAALCDRGSRPLPPLPISEDLCVDEADSEVELLTTSSDTDLLLEDSAPSDFKYDAPGRRSFRGCGQINYAYFDSPTVSVADLSCASDQNRVVPDPNPPPPQSHRRLRRSHSGPAGSFNKPAIRISSCTHRASPSSDEDKPEVPPRVPIPPRPAKPDYRRWSAEVTSNTYSDEDRPPKVPPREPLSRSNSRTPSPKSLPSYLNGVMPPTQSFAPDPKYVSSKALQRQSSEGSANKVPCILPIIENGKKVSSTHYYLLPERPPYLDKYEKYFKEAEETNPSTQIQPLPAACGMASATEKLASRMKIDMGSHGKRKHLSYVVSP
B5: transforming growth factor beta regulator 1 (TBRG1) (protein, UniProt Q3UB74 1-406)
chain: MSVLSGLASEPRTPLSSKARMKRLPRKSQNEKYRLKYLRLRRAAKATVFENASICDEIARLEEKFLKAKEERRYLLKKLLQIHALTEGEPQAAAPSHSSSLPLPYGVTSSVGTMQGAGPSTGAEEPFAKKSKKEKKEKGKENSKLEVLKKTSKKKKMEGGARKLVRPIALDPSGQPVFPIGLGGLTVYSLGEIITNRPGFHDENAIYPVGYCSTRVYASMKCPDQKCLYTCQIKDGGVQPQFEIVPEDDPQNTIVGSSADACYEELLRAISATTGKLMPNPLSCGADFFGFSHPTIHNLIQSCPEAQNCVNYQWVKFDACKPRKGQLSQELPENDATMSLEAFQTQTFDDDHDDSILPGSLDLPELQHEAFVSSYQPEFLTHEPLVDTDLQHLKSPSQCSPIQSSD

What was measured:
[1] = target: T1, APEX2-ATOX1 fusion construct (3x Flag-APEX2-3x Myc-human ATOX1) (human) (UniProt O00244); assay: proximity labelling; APEX2-ATOX1 induced with doxycycline (2.5 ug/mL) in stable C2C12 myoblasts, myocytes and myotubes; 2.5 mM biotin-phenol, 0.75 mM H2O2 for 1 min; streptavidin agarose capture from RIPA lysates; label-free nanoLC-MS/MS, three replicates per state; cells without biotin phenol as negative control
T1 sequence: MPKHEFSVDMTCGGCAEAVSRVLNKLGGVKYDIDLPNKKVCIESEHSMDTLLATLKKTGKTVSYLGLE

[2] = target: T1, APEX2-ATOX1 fusion construct (3x Flag-APEX2-3x Myc-human ATOX1) (human); assay: proximity labelling; as the immunoblot of streptavidin eluates, but elution with urea containing buffer without boiling; myoblasts, myocytes and myotubes; cells without biotin phenol as negative control
[3] = target: T1, APEX2-ATOX1 fusion construct (3x Flag-APEX2-3x Myc-human ATOX1) (human); assay: proximity labelling; APEX2-ATOX1 in stable C2C12 myoblasts, myocytes and myotubes, biotin-phenol labelling; independent streptavidin bead eluates probed by immunoblot; cells without biotin phenol as negative control
[4] = target: T1, APEX2-ATOX1 fusion construct (3x Flag-APEX2-3x Myc-human ATOX1) (human); assay: proximity labelling; APEX2-ATOX1 induced with doxycycline (2.5 ug/mL) in stable C2C12 myoblasts, myocytes and myotubes; 2.5 mM biotin-phenol, 0.75 mM H2O2 for 1 min; streptavidin agarose capture from RIPA lysates; label-free nanoLC-MS/MS, three replicates per state; cells without biotin phenol as negative control; remark: listed apart in the source

| Molecule | binding [1] | binding [4] | also measured |
| --- | --- | --- | --- |
| FUBP1 (from UniProt Q91WJ8 1-651) | binds | – | – |
| HNRNPAB (from UniProt Q99020 1-285) | binds | – | – |
| SNX9 (from UniProt Q91VH2 1-595) | binds | – | – |
| copper exporter ATP7A (from UniProt Q64430 1-1491) | – | – | binding [2]: binds |
| dual specificity mitogen-activated protein kinase kinase 2 (MEK2) (from UniProt Q63932 1-401) (enzyme) | binds | – | binding [3]: binds |
| B1 | – | binds | binding [3]: binds |
| B2 | – | binds | – |
| B3 | – | binds | – |
| B4 | – | binds | – |
| B5 | – | binds | – |

No constants are given. Whether binding was seen depends on the method and setting. In cells and extracts the contact can be indirect. Here binding means that the protein was enriched with, or labelled near, the bait; the list need not be complete. Where a sequence is shown, tags or fusion partners need not be part of it.
